These results are taken from PMC5571105.

No constants are given. Whether binding was seen depends on the method and setting. For some assays here: A result given as binding can be weak or reduced; the word gives no strength. For some assays here: Binding seen in cells or lysates may run through a third protein. For some assays here: Sequences can lack the tags named with a protein.

Assay [1] concerns the target nEYFP-OsRR12 (rice). The assay can be described thus: split reporter; BiFC in onion epidermal peel cells, nEYFP and cEYFP fusions under the 2XCaMV35S promoter co-transformed by particle bombardment; YFP seen by confocal microscopy 12 hours post transfection; repeated three times.
Assay [2] has as its target cEYFP-OsPHP2 (rice). Described as above.
Assay [3] concerns the target OsPHP3 (BiFC fusion) (rice). Described as above.
Assay [4] addresses nEYFP-OsRR5 (rice). The assay is described as above.
For assay [5], the target named is OsPHP2 (rice). The assay can be described thus: two-hybrid; β-galactosidase filter lift assay (LacZ reporter) of the co-transformed yeast colonies, X-gal as substrate, 30 °C in the dark.
Assay [6] addresses OsPHP3 (rice). The description is as above.
The target in assay [7] is OsPHP1 (rice). Described as above.
Assay [8] concerns the target OsRR12 (rice). The assay can be described thus: two-hybrid; S. cerevisiae AH109; bait in pGBD-C1 (GAL4 binding domain; written as target), prey in pGAD-C1 (GAL4 activation domain; written as binder); serial dilutions spotted on triple drop-out medium with 5 mM 3-AT (HIS3) and quadruple drop-out medium (ADE2), 30 °C; growth on quadruple drop-out shows strong interaction.

In assay [9] the target is OsRR6 (rice). The assay is described as above.
Assay [10] concerns the target OsPHP2 (rice). The assay is described as above.
Assay [11] addresses OsRR4 (rice). Described as above.
The target in assay [12] is OsRR13 (rice). The assay is described as above.
Assay [13] deals with OsPHP3 (rice). The description is as above.
Assay [14] addresses OsRR1 (rice). Described as above.
Assay [15] concerns the target OsPHP1 (rice). Described as above.
The target of assay [16] is OsRR5 (rice). The description is as above.
The target of assay [17] is nEYFP-OsRR4 (rice). The assay can be described thus: split reporter; BiFC in onion epidermal peel cells, nEYFP and cEYFP fusions under the 2XCaMV35S promoter co-transformed by particle bombardment; YFP seen by confocal microscopy 12 hours post transfection; repeated three times.
The target in assay [18] is OsPHP1 (BiFC fusion) (rice). The description is as above.

B1: OsRR24 (BiFC fusion) (protein, UniProt Q6H805 1-626)
chain: MTVEERQGRVGGHGVSGGGGGRDQFPVGMRVLAVDDDPTCLKILENLLLRCQYHVTTTGQAATALKLLRENKDQFDLVISDVHMPDMDGFKLLELVGLEMDLPVIMLSANGETQTVMKGITHGACDYLLKPVRLEQLRTIWQHVIRRKNCDAKNRGNDDDAGQKAQGMNNEGESIGANRNKRQSRKSRDENGDDGDDSDENSNENGDSSTQKKPRVVWSVELHRKFVAAVNQLGIEKAVPKKILDLMNVENITRENVASHLQKYRLYLKRLSTDASRQANLAAAFGGRNPAYINMNSFGNYNAYGRYRTVPTAGHTQANNILTRMNSPSAFGVHGLLHSQPIQLGHAQNNLSTSLNDLGGLNNGNMIRGAQMSTILTGPSGNSFPNISNGAPLATANRSLQPLESSNQQHLSRVHSSSADPFSTLVGESPQFPDLGRTTNTWQTAVPSNIQDRGHNDNMSQATLHMNGPKIEPVSSFTSSNQIPLLGNEMQGQVASLASNVPIAFNQDTSPFNYGSSTNSRDMLNNSHVFSNSSINTSLPNLSLDNPAVPRQTLDRGNTGIVSPMQDGRIHHQAVSNQLNYNDDLMRTTGLQRGLSGGLDDIVVDMFRPDREDDGVPYIDGDWELV
B1: the binding entry in assay [1], in [2] and in [3] was “binds” throughout.

B2: cEYFP-OsRR21 (protein, UniProt Q8H7S7 1-691)
chain: MAPVEDGGGVEFPVGMKVLVVDDDPTCLAVLKRMLLECRYDATTCSQATRALTMLRENRRGFDVIISDVHMPDMDGFRLLELVGLEMDLPVIMMSADSRTDIVMKGIKHGACDYLIKPVRMEELKNIWQHVIRKKFNENKEHEHSGSLDDTDRTRPTNNDNEYASSANDGAEGSWKSQKKKRDKDDDDGELESGDPSSTSKKPRVVWSVELHQQFVNAVNHLGIDKAVPKKILELMNVPGLTRENVASHLQKFRLYLKRIAQHHAGIANPFCPPASSGKVGSLGGLDFQALAASGQIPPQALAALQDELLGRPTNSLVLPGRDQSSLRLAAVKGNKPHGEREIAFGQPIYKCQNNAYGAFPQSSPAVGGMPSFSAWPNNKLGMADSTGTLGGMSNSQNSNIVLHELQQQPDAMLSGTLHSLDVKPSGIVMPSQSLNTFSASEGLSPNQNTLMIPAQSSGFLAAMPPSMKHEPVLATSQPSSSLLGGIDLVNQASTSQPLISAHGGGNLSGLVNRNPNVVPSQGISTFHTPNNPYLVSPNSMGMGSKQPPGVLKTENSDALNHSYGYLGGSNPPMDSGLLSSQSKNTQFGLLGQDDITGSWSPLPNVDSYGNTVGLSHPGSSSSSFQSSNVALGKLPDQGRGKNHGFVGKGTCIPSRFAVDEIESPTNNLSHSIGSSGDIMSPDIFGFSGQM
With B2, the binding result in [4] is “binds”.

B3: OsRR23 (protein, UniProt Q6K8X6 1-688)
chain: MRAAEERKGVVPAARRRDQFPVGMRVLAVDDDPVCLKVLETLLLRCQYHVTTTNQAAIALKMLRENRDMFDLVISDVHMPDMDGFKLLELVGLEMDLPVIMLSVNGETKTVLKGITHGACDYLLKPVRIEELRNIWQHVIRRKFSTRDRANLDFYEECNKPPNADSDHVHGHVTCGSPDQSGRPSKKRKEYCSEEEDEGEVNTQDIDDPSAPKKPRVVWSVELHRKFVAAVNQLGIDKAVPKRILELMNVEKLTRENVASHLQKYRLYLKRLSAVASQQVSIVAALGGRDPFLHMGGFEGLQGYQAFTSSAALSSFTPHGLLNSPRNNPAALGTQGVPASKSIQTMSGSHTLSHSINDANKYHLSLPGNQKGNLGQGLATSLGQTQMQQKWIHEETDDLSTILSGNGLSNGMSGTLQSVTSSPLLPQELAECTQAKIVSQPSIRTSSVSSEHIEGAVGVSSGLLESRVSQQSTIPLSGFSANGLLIHGSFNNTCANKLGGTSSSCAPARSSNDLMVARDTKGGASSFGGAMLLPPDTEQKYLNFGGGNGLKQKFDDRTADSLFDLKFVWSSVPSSQLASNIGAHHAMSQRWNNSSSNSSNIGARMIGQATSSGSTVIPQMKTDFLVSGDMAMPKNASDLSIPKLQSELSSSSCSFDGLLNSIVKVEKDDVTFSDDLGCGDFYSLGACI
As to B3, the binding entry in assay [5] is given as “binds”; in [6], “binds”; in assay [7], “binds”; in assay [8], “no binding”; in [9], “no binding”; in assay [10], “binds”. The binding entry is “no binding” in assay [11]; “no binding” in assay [12]; “binds weakly” in assay [13]; “no binding” in assay [14]; “binds” in assay [15]; “no binding” in assay [16].

B4: OsRR26 (BiFC fusion) (protein, UniProt Q5N6V8 1-582)
chain: MDATAFPYGLRVLVVDDDPTWLKILEKMLRKCSYEVTTCGLARVALDILRERKNKFDIVISDVNMPDMDGFKLLEHIGLEMDLPVIMMSIDGETSRVMKGVQHGACDYLLKPVRMKELRNIWQHVYRKKMHEVKEIEGNDSCDDLQILRNSFEGLDEKSLFMRSDSDTMRKRKDVDKDHADQESSDGNTVKKARVVWSVDLHQKFVNAVNQIGFDKVGPKKILDLMNVPGLTRENVASHLQKYRLYLSRLQKQNEERILGAARQDFSHKGTSENLNLRSSFQEQPSNIANGYPHASQNIQTQANMLDSQLEDTKSTVPLPVPDKKRTLASDAADSQNVTSASSLGGVLSFKSMPVNQDRKPSETMILECQAWTGGIPSKQFMQYPKHNHERCDLLGDYSCLPKPDLEHPVGPSNLYAPPPLISMSCGMEGDARDFSDVKPAIMDCIKSLSPALTCTVDSVSVQLSDSVVTSIDGDLKSSGVDGLPSIKDCCLDQTNSQGSLRPSQEPSIIGSTELASLPEDLPSYPLHGVSLENIGLSSIDLLNYSDAMILSGLQSNWYDDLEFSSEMMDYPSIDECLFASS
For the molecule B4, the binding entry in [17], in assay [18], in assay [2] and in [3] was “binds” in each case.
